# PubChem BioAssay AID686938, Drosophila RNAi Screening Center | 2013
# Purpose: 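Fly genes required for calcium entry once internal stores are emptied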 (primary screen)
# Cells: Drosophila S2R+ cells
# Reagents: long dsRNA against Drosophila genes, about 0.25 µg dsRNA per well, roughly 10,000 cells
# Timing: 5 days of knock-down before the calcium assay
# Conditions: thapsigargin (SERCA pump blocker) to empty calcium stores; entry signal taken 4 min after adding it
# Detection: 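Duplicate raw fluo-4 intensities per well from a plate reader, at rest and four minutes after thapsigargin emptied calcium stores; entry-to-rest ratio filled for only some wells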
# Direction: calcium entry signal: higher = stronger calcium signal after store depletion; resting calcium signal: higher = higher resting calcium signal
# Rule for the call: 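Called when the plate z-score of the entry-to-rest ratio, mean of duplicates, falls below −3; wells with low overall dye signal (Fmax z below −2) or more than five off-targets excluded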
# Calls: active = strongly reduced calcium entry; inactive = no strong reduction
# The screen tested about 23,000 reagents; shown is an unselected part of those with a known target gene and a result. Over the whole deposit, 75 (0.33%) are marked active. 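Raw plate signals without normalisation; calls rest on plate z-scores that were not deposited; ratio present for only 364 wells.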 The numbers tell different reagents against one gene apart. Names joined by + are all predicted targets of the reagent. Not stated in the record: the dose of the treatment.
Gene,reagent,"calcium entry signal, replicate 1 (fluorescence units)","calcium entry signal, replicate 2 (fluorescence units)","resting calcium signal, replicate 1 (fluorescence units)","resting calcium signal, replicate 2 (fluorescence units)",Call
CG30076,1,5.19e7,3.93e7,3.26e7,1.67e7,inactive
Ist1,1,3.13e7,3.48e7,2.11e7,1.42e7,inactive
spi,1,4.06e7,5.21e7,1.89e7,2.15e7,inactive
mtrm,1,4.79e7,3.88e7,3.00e7,1.57e7,inactive
mtrm,2,7.70e7,2.14e7,3.24e7,9.91e6,inactive
CG12133,1,2.32e7,2.94e7,1.25e7,1.32e7,inactive
CG12121,1,2.66e7,3.31e7,1.38e7,1.70e7,inactive
CG12158,1,3.81e7,2.94e7,1.90e7,1.43e7,inactive
CG11122,1,1.85e7,2.09e7,9.55e6,1.00e7,inactive
CG16799,1,2.92e7,3.35e7,1.56e7,1.59e7,inactive
CG16799,2,4.33e7,3.43e7,2.46e7,1.52e7,inactive
kug,1,3.53e7,4.48e7,1.63e7,2.92e7,inactive
IntS2,1,2.78e7,3.14e7,1.40e7,1.61e7,inactive
CG18814,1,5.68e7,7.43e7,2.57e7,2.75e7,inactive
nvd,1,2.68e7,4.76e7,1.30e7,2.24e7,inactive
5PtaseI,1,4.01e7,4.18e7,1.80e7,1.68e7,inactive
5PtaseI,2,3.92e7,4.83e7,1.80e7,2.80e7,inactive
Srg2,1,3.87e7,2.25e7,2.71e7,1.03e7,inactive
CG7829,1,4.33e7,6.08e7,2.22e7,2.58e7,inactive
CG1724,1,3.66e7,4.02e7,2.03e7,1.71e7,inactive
NaPi-III,1,3.78e7,3.12e7,2.53e7,1.46e7,inactive
NaPi-III,2,3.61e7,4.97e7,1.98e7,2.55e7,inactive
NaPi-III,3,2.07e7,2.86e7,1.14e7,1.20e7,inactive
CG8838,1,4.71e7,,2.27e7,,inactive
Ir21a + asRNA:CR43609,1,3.46e7,3.29e7,1.67e7,1.57e7,inactive
woc,1,3.15e7,3.57e7,1.60e7,1.75e7,inactive
Cog6,1,3.79e7,2.84e7,1.53e7,1.21e7,inactive
Cdc16,1,3.56e7,3.24e7,2.62e7,2.06e7,active
Hsp83,1,3.06e7,2.48e7,1.98e7,1.52e7,inactive
CG32099,1,3.07e7,3.26e7,1.70e7,1.57e7,inactive
CG32075,1,2.50e7,3.71e7,1.44e7,1.65e7,inactive
CG11041,1,5.60e7,5.52e7,2.36e7,2.57e7,inactive
CG6424,1,2.77e7,2.54e7,1.43e7,1.26e7,inactive
CG32486,1,3.87e7,2.62e7,2.55e7,1.13e7,inactive
CG32486,2,3.87e7,4.13e7,1.97e7,1.78e7,inactive
CG42724,1,2.57e7,3.65e7,1.09e7,1.39e7,inactive
CG42724,2,2.31e7,6.75e7,1.11e7,2.84e7,inactive
MED28,1,2.87e7,2.94e7,1.67e7,1.69e7,inactive
Pex19,1,4.48e7,,2.13e7,,inactive
CG42269,1,2.13e7,3.06e7,1.05e7,1.26e7,inactive
CG42269,2,2.37e7,3.16e7,1.09e7,1.41e7,inactive
ssp3,1,3.56e7,3.69e7,1.55e7,1.64e7,inactive
ssp3,2,6.32e7,4.41e7,2.94e7,1.68e7,inactive
Acsx4,1,4.20e7,3.89e7,5.50e7,1.96e7,inactive
Fatp (retired record),1,4.37e7,,2.19e7,,inactive
CG12934,1,4.04e7,3.78e7,2.15e7,1.93e7,inactive
CG4313,1,3.12e7,3.74e7,1.43e7,1.67e7,inactive
Cyfip,1,3.83e7,4.34e7,1.60e7,1.90e7,inactive
mtSSB,1,3.48e7,5.29e7,1.72e7,6.12e7,inactive
CG31855,1,2.82e7,2.22e7,1.35e7,1.09e7,inactive
Cpr65Ec,1,3.37e7,3.89e7,1.61e7,1.63e7,inactive
CG11597,1,4.36e7,3.26e7,2.94e7,1.35e7,inactive
hig,1,2.62e7,6.71e7,1.18e7,2.78e7,inactive
hig,2,3.02e7,4.45e7,1.48e7,2.04e7,inactive
hig,3,5.69e7,4.25e7,3.02e7,2.03e7,inactive
CG13332,1,3.68e7,3.95e7,1.86e7,1.87e7,inactive
Muc26B,1,3.83e7,3.90e7,1.79e7,1.86e7,inactive
sun,1,4.31e7,3.35e7,2.11e7,1.54e7,inactive
Gr10b,1,3.23e7,3.69e7,1.64e7,1.88e7,inactive
chico,1,3.91e7,,1.98e7,,inactive
Xpc,1,2.59e7,2.17e7,1.12e7,1.05e7,inactive
CG7992,1,5.12e7,6.10e7,2.60e7,2.58e7,inactive
CG32523,1,3.02e7,3.72e7,1.74e7,1.62e7,inactive
RagA-B,1,2.68e7,3.08e7,1.13e7,1.37e7,inactive
CG11106,1,3.52e7,3.84e7,1.76e7,1.81e7,inactive
CG2209,1,3.10e7,5.86e7,1.57e7,2.68e7,inactive
Mnn1,1,3.24e7,3.52e7,1.66e7,1.67e7,inactive
CG5199,1,2.39e7,4.07e7,1.10e7,1.67e7,inactive
mTor,1,3.65e7,,1.88e7,,inactive
CG3841,1,3.21e7,6.17e7,1.68e7,2.61e7,inactive
PIP82,1,4.19e7,3.98e7,1.85e7,1.78e7,inactive
CG14277,1,3.34e7,5.23e7,1.58e7,2.04e7,inactive
CG11788,1,5.63e7,5.07e7,2.41e7,2.43e7,inactive
CG33257,1,3.69e7,5.45e7,1.72e7,2.35e7,inactive
Sec61alpha,1,5.10e7,,3.55e7,,active
